No constants are given. Whether binding was seen depends on the method and setting. Binding seen in cells or lysates may run through a third protein. Some entries that bind do so weakly or less than the wild type.
Target: AtbZIP63 (UniProt B9DGI8)
Experiment: split reporter; BiFC: nYFP and cYFP fusions (pSPYNE-35S, pSPYCE-35S) transiently expressed in Nicotiana benthamiana leaf epidermis by Agrobacterium infiltration; YFP fluorescence by microscopy

B1: AtbZIP63 (protein, UniProt B9DGI8 1-314)
chain: MEKVFSDEEISGNHHWSVNGMTSLNRSASEWAFNRFIQESSAAADDGESTTACGVSVSSPPNVPVDSEEYRAFLKSKLNLACAAVAMKRGTFIKPQDTSGRSDNGGANESEQASLASSKATPMMSSAITSGSELSGDEEEADGETNMNPTNVKRVKRMLSNRESARRSRRRKQAHLSELETQVSQLRVENSKLMKGLTDVTQTFNDASVENRVLKANIETLRAKVKMAEETVKRLTGFNPMFHNMPQIVSTVSLPSETSNSPDTTSSQVTTPEIISSGNKGKALIGCKMNRTASMRRVESLEHLQKRIRSVGDQ
With B1 the binding was “binds”.
